Experimental data reported in PubChem BioAssay AID504834 (National Center for Advancing Translational Sciences (NCATS), 2011).
About 22,000 (6.9%) of roughly 320,000 compounds were called active. Inconclusive means that the source gave no clear call. Such entries were picked first, then a sample of the others. Calls come from the whole dose curve; as a rule, active = well fitted inhibition curve with a large enough effect; inconclusive = small, poorly fitted or top-dose-only effect, or another doubt; inactive = no such curve, though single readings can be large or run the other way. Where the call is inconclusive, the potency comes from a doubtful curve fit.

test: Primary qHTS for delayed death inhibitors of the malarial parasite plastid, 96 hour incubation; conditions: P. falciparum luciferase reporter growth; series mostly up to 28.7 µM
In short: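 Infected RBCs, 2% Hct / 0.05% parasitemia final; luciferase-reporter P. falciparum; cpd 96 h, 37 C, 5% CO2; luciferase detection reagent; luminescence.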
Potency is the fitted concentration of half-maximal effect.

Row | Structure (SMILES) | Potency
1 | COCCCN1CC(=O)N2C(c3ccccc3)c3[nH]c4ccccc4c3C[C@H]2C1=O (some centres not stated) | inconclusive: 11.7 µM [inhibitor, partial curve, poor fit]
2 | Cc1ccc(NC(=S)NC(C)CCc2ccccc2)cc1C (configuration not stated) | inconclusive: 11.7 µM [inhibitor, single point]
3 | CCOc1ccccc1OCCCOc1ccc([N+](=O)[O-])cc1Cl | active: 10.4 µM
4 | CN1CCC(Oc2ccccc2Sc2ccccc2)CC1 | active: 13.1 µM
5 | CCN(CC)CCSc1nnc2c3ccccc3n(CCc3ccccc3)c2n1 | inconclusive: 11.7 µM [inhibitor, single point]
6 | C/C(=N\Nc1nc(-c2cc(C)ccc2C)cs1)c1cc2ccccc2oc1=O | inactive
7 | COc1cc(OC)c(OC)cc1/C=N/NC(=O)CCc1c(C)n[nH]c1C | inactive
8 | COc1cc(NC(=O)Cc2ccc(OC)c(S(=O)(=O)N3CCOCC3)c2)c(OC)cc1Cl | active: 14.7 µM
9 | CCCC(=O)Nc1cccn(Cc2ccccc2Br)c1=O | inconclusive: 9.28 µM [inhibitor, partial curve, poor fit]
10 | O=C(c1ccc(CNc2c(N3CCCC3)c(=O)c2=O)cc1)N1CC=C(c2ccccc2)CC1 | inconclusive: 8.28 µM [inhibitor, single point]
11 | CC(=O)C1=C(C)NC(=S)NC1c1cccc([N+](=O)[O-])c1 (configuration not stated) | inactive
12 | CC(Oc1ccc(-c2ccccc2)cc1)C(=O)O (configuration not stated) | inconclusive: 9.28 µM [inhibitor, partial curve, poor fit]
13 | NNC(=O)c1csc(-c2ccccc2)n1 | inactive
14 | CC(C)C(CCN1C(=O)CCC1=O)C1CCOC(C)(C)C1 (configuration not stated) | inconclusive: 1.47 µM [inhibitor, partial curve]
15 | Clc1ccc(OCc2nc(-c3ccncc3)no2)cc1 | active: 10.4 µM
16 | CN(Cc1nc2ccccc2n1C)C(=O)c1cccs1 | inconclusive: 4.65 µM [inhibitor, single point]
17 | CN(C)C(=O)CCSC(SCCC(=O)O)c1cccc(/C=C/c2ccc3ccc(Cl)cc3n2)c1 (configuration not stated) | inconclusive: 7.57 µM [inhibitor, partial curve]
18 | OC1(c2ccc(Br)cc2)CCN(Cc2cccc(Br)c2)CC1 | active: 4.65 µM
19 | Cc1cccc(NC(=O)CSCC(=O)N(C)CCOc2ccc(Cl)cc2)c1 | inconclusive: 5.22 µM [inhibitor, partial curve, poor fit]
20 | O=C(Nc1nc2cc3c(cc2s1)OCO3)c1cccc(N2C(=O)CCC2=O)c1 | inactive
21 | O=C(N/N=C/c1cccc(OC(=O)c2cccc(Br)c2)c1)c1cccnc1 | inconclusive: 18.5 µM [inhibitor, partial curve, poor fit]
22 | Cc1ccc(Cc2c(C)nc3nc(SCC(=O)NCCCN4CCOCC4)nn3c2C)cc1 | inconclusive: 20.8 µM [inhibitor, partial curve, poor fit]
23 | O=C1c2ccccc2C(=O)N1CCCCN(C(=O)c1ccc([N+](=O)[O-])cc1)c1ccc(Cl)cc1 | inconclusive: 11.7 µM [inhibitor, partial curve, poor fit]

Some of the entries so far, as tab-separated lines:
Row	Structure (SMILES)	Potency
9	CCCC(=O)Nc1cccn(Cc2ccccc2Br)c1=O	inconclusive: 9.28 µM [inhibitor, partial curve, poor fit]
14	CC(C)C(CCN1C(=O)CCC1=O)C1CCOC(C)(C)C1 (configuration not stated)	inconclusive: 1.47 µM [inhibitor, partial curve]
19	Cc1cccc(NC(=O)CSCC(=O)N(C)CCOc2ccc(Cl)cc2)c1	inconclusive: 5.22 µM [inhibitor, partial curve, poor fit]

(more compounds)

Row | Structure (SMILES) | Potency
24 | CN1C(=S)SC(N(O)C(=O)Nc2cccc3ccccc23)C1(C)C (configuration not stated) | inconclusive: 16.5 µM [inhibitor, single point]
25 | Cc1ccc(N2CC(NS(=O)(=O)c3cccs3)CC2=O)cc1 (configuration not stated) | inactive
26 | Cc1c(C(=O)c2ccccc2)c(=O)n(C)c(=O)n1C | inactive
27 | COc1cc(/C=N/NC(=O)c2ccc(O)cc2)ccc1OCC(=O)Nc1cccc([N+](=O)[O-])c1 | active: 10.4 µM
28 | C[C@@H]1CCC[C@H](C)N1NC(=O)c1ccc(Cl)c(S(N)(=O)=O)c1 | inconclusive: 0.586 µM [inhibitor, full curve, poor fit]
29 | COc1cccc(C(=O)O[C@@H]2[C@H](Cc3ccccc3)NS(=O)(=O)[C@H]3C[C@@H]4C=C[C@]23O4)c1 | inconclusive: 13.1 µM [inhibitor, single point]
30 | COC(=O)c1cccc(C23CC4(C2)[C@H](CN(C)[C@@H]4c2ccccc2)C3c2ccc(C(F)(F)F)cc2)c1 (some centres not stated) | inconclusive: 13.1 µM [inhibitor, partial curve, poor fit]
31 | CC(OC(=O)CCc1nc2ccccc2c(=O)[nH]1)C(=O)c1ccc(C(C)(C)C)cc1 (configuration not stated) | inactive
32 | Cc1cccnc1NC(=O)c1cccc(S(=O)(=O)NCc2ccccc2)c1 | inactive
33 | CCCN(CC(=O)Nc1ccccc1C)C(=O)C1CCN(C(=O)Nc2ccccc2)CC1 | inconclusive: 7.38 µM [inhibitor, partial curve, poor fit]
34 | COc1ccc(NC(=O)COc2ccc(N(C)S(=O)(=O)c3ccc(C)cc3)cc2)cc1 | inactive
35 | Cc1cccc(C)c1NC(=O)c1cc2c(=O)c3ccccc3oc2nc1C(F)(F)F | inconclusive: 0.0738 µM [inhibitor, full curve, poor fit]
36 | Cc1ccc(C)c(NC(=O)CSc2ccc(-c3ccco3)nn2)c1 | inconclusive: 10.4 µM [inhibitor, single point]
37 | CN1C(=O)N(CC(=O)NCc2ccc(Cl)cc2Cl)C(=O)C12CCCCC2 | inconclusive: 10.4 µM [inhibitor, single point]
38 | O=[N+]([O-])c1ccc(-c2ccc(/C=N/Nc3nc(N4CCCC4)nc(N4CCCC4)n3)o2)cc1 | inconclusive: 0.147 µM [inhibitor, full curve, poor fit]
39 | COc1ccc(CNS(=O)(=O)c2cc(-c3cc(C)no3)ccc2C(C)C)cc1 | inactive
40 | CCS(=O)c1ccccc1C(=O)OCC(=O)Nc1cccc(S(=O)(=O)N2CCCCC2)c1 (configuration not stated) | inconclusive: 18.5 µM [inhibitor, single point]
41 | COc1ccc(N2CCN(C3CCCN(C(=O)c4ccoc4)C3)CC2)cc1 (configuration not stated) | inconclusive: 18.5 µM [inhibitor, single point]
42 | COc1ccc(CC(=O)Nc2ccc(C)cc2O)cc1S(=O)(=O)N1CCOCC1 | inconclusive: 9.28 µM [inhibitor, partial curve, poor fit]
43 | O=C(NNS(=O)(=O)c1ccccc1)c1cc2cc3ccccc3nc2s1 | inactive
44 | CC(C)(C)N1C(=O)c2ccc(C(=O)Nc3ccc(C(=O)O)cc3)cc2C1=O | active: 9.28 µM
45 | O=C(c1nn(-c2ccccc2)c(=O)c2ccccc12)N1CCN(c2ncccn2)CC1 | inactive
46 | Cn1c(=O)n(CC(=O)NCc2cccnc2)c2ccccc21 | inconclusive: 13.1 µM [inhibitor, single point]

Row | Structure (SMILES) | Potency
47 | O=C(OCc1nc2ccccc2s1)C1CCN(C2=NS(=O)(=O)c3ccccc32)CC1 | inconclusive: 20.8 µM [inhibitor, partial curve, poor fit]
48 | COc1ccc(NC(=S)/N=C(\N)Nc2nc(C)c3ccccc3n2)cc1 | active: 2.94 µM
49 | O=C(Cn1c(SCC(=O)N2CCc3ccccc3C2)nc2ccccc21)NC1CCCC1 | inconclusive: 3.29 µM [inhibitor, partial curve]
50 | C[C@@H](NC(=O)c1[nH]cnc1C(=O)Nc1ccc(Cl)cc1)c1ccccc1 | inconclusive: 13.1 µM [inhibitor, single point]
51 | COc1ccc(Cl)cc1S(=O)(=O)N1CCCC(C(=O)NCCc2ccccc2)C1 (configuration not stated) | active: 10.4 µM
52 | CN(Cc1cccc(F)c1)C(=O)CSc1nnc(C2CC2)n1C1CC1 | inconclusive: 11.7 µM [inhibitor, single point]
53 | O=c1c2cc(N3CCOCC3)ccc2[nH]c(=S)n1CCCN1CCCCCC1 | inactive
54 | COc1ccc(-c2cc(C(=O)NCC(c3ccco3)N(C)C)c3ccccc3n2)cc1OC (configuration not stated) | inconclusive: 10.4 µM [inhibitor, single point]
55 | CS(=O)(=O)c1ccc2nnn(OCC(=O)Nc3cccc(C#N)c3)c2c1 | inconclusive: 0.037 µM [inhibitor, full curve, poor fit]
56 | Cn1c(SCC(=O)N/N=C/c2ccc(O)c(O)c2)nc2ccccc21 | inactive
57 | Cc1ccc2c(c1)CC1(CN2C)C(=O)NC(=O)N(c2cc(C)ccc2C)C1=O (configuration not stated) | inconclusive: 0.329 µM [inhibitor, partial curve, poor fit]
58 | S=C(NCCc1ccccc1)Nc1ccccc1Cl | inconclusive: 18.5 µM [inhibitor, single point]
59 | COc1ccc(CCC(=O)Nc2nc(C)c(C(=O)N(C)C)s2)cc1 | inconclusive: 4.15 µM [inhibitor, single point]
60 | CCOC(=O)CNC=C(C(=O)OCC)C(=O)OCC | inactive
61 | CCOC(=O)c1ccc(NC(=O)CCN2C(=O)C3CC=CCC3C2=O)cc1 (configuration not stated) | inconclusive: 18.5 µM [inhibitor, single point]
62 | Cc1ccc(C(=O)N2N=C(c3ccc(NS(C)(=O)=O)cc3)CC2c2cccs2)cc1 (configuration not stated) | inconclusive: 18.5 µM [inhibitor, single point]
63 | CCCCn1c(N)c(N(CCC(C)C)C(=O)C2CC(=O)N(c3cccc(SC)c3)C2)c(=O)[nH]c1=O (configuration not stated) | inconclusive: 18.5 µM [inhibitor, single point]
64 | CCOc1ccccc1NC(=O)C(OC(=O)c1ccc(N(C)C)cc1)c1ccccc1 (configuration not stated) | inconclusive: 11.7 µM [inhibitor, single point]
65 | COc1ccc(C(=O)c2c[nH]c(C(=O)NCC3CCCO3)c2)cc1 (configuration not stated) | inconclusive: 9.28 µM [inhibitor, partial curve]
66 | O=C(C1CCCN(Cc2ccccc2[N+](=O)[O-])C1)N1CCCC1 (configuration not stated) | inactive
67 | O=C(C[n+]1cccc(CNC(=O)c2ccc(OC(F)F)cc2)c1)Nc1cc(C(F)(F)F)ccc1Cl | active: 0.928 µM
